Reference: PubChem BioAssay AID1053208 (Peter MacCallum Cancer Centre, 2014)
The deposit covers about 17,000 reagents; below is an unselected part. In the full data, 788 (4.7%) got an active call. 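Calls rest on z-score classes alone; an extra cut-off of viability at most 70% of control was not applied to them.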 Further read-outs or replicates are left out here.

- Test: 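Genes whose silencing cuts survival of bone tumour cells only with doxorubicin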 (primary screen)
- System: mouse osteosarcoma cells, early-passage culture from an engineered mouse model of fibroblastic bone tumour
- Reagents: siRNA pool against mouse genes, 40 nM
- Duration: about 120 h (48 h before drug, then 72 h with drug)
- Challenge: doxorubicin 100 nM for 72 h, roughly 30-40% inhibitory dose
- Measurement: 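Viability read as ATP luminescence after 72 h of 100 nM doxorubicin or none, duplicate wells averaged, scaled to non-targeting siRNA, then expressed as robust z-scores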
- Scale: viability z-score with doxorubicin: higher = more viable cells under doxorubicin; viability z-score without drug: higher = more viable cells with knock-down alone
- Rule for the call: 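Called active if knock-down leaves viability unchanged without drug (z within -2 to 2) but lowers it with doxorubicin (z at or under -2)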

What is on record for Fbxl8 (F-box and leucine-rich repeat protein 8) [SID152341830]?
combined z-score class: no change with or without drug; viability z-score with doxorubicin: -0.67; viability z-score without drug: 0.51; outcome: inactive

For Spag6l (sperm associated antigen 6-like) [SID152327017], how do the results read?
combined z-score class: no change with or without drug; viability z-score with doxorubicin: 0.22; viability z-score without drug: -0.67; outcome: inactive

For Rnasel [SID152330283], how do the results read?
combined z-score class: no change with or without drug; viability z-score with doxorubicin: 0.67; viability z-score without drug: 0.84; outcome: inactive

With Asb5 (ankyrin repeat and SOCs box-containing 5) [SID152330703], what was measured?
combined z-score class: no change with or without drug; viability z-score with doxorubicin: 0.56; viability z-score without drug: -1.18; outcome: inactive

Which result is listed for Coil (coilin) [SID152261694]?
combined z-score class: no change with or without drug; viability z-score with doxorubicin: 0.79; viability z-score without drug: 1.01; outcome: inactive

For Mak16 (MAK16 homolog) [SID152280346], how do the results read?
combined z-score class: no change with or without drug; viability z-score with doxorubicin: 0.79; viability z-score without drug: 1.85; outcome: inactive

How did the screen score Dnmt1 (DNA methyltransferase 1) [SID152341432]?
combined z-score class: no change with or without drug; viability z-score with doxorubicin: 0.22; viability z-score without drug: 0.17; outcome: inactive

What did the screen give for Ptcd1 (pentatricopeptide repeat domain 1) [SID152310945]?
combined z-score class: no change with or without drug; viability z-score with doxorubicin: 0.45; viability z-score without drug: 0.84; outcome: inactive

For Obox6 (oocyte specific homeobox 6) [SID152297241], what was measured?
combined z-score class: high cell count with doxorubicin only; viability z-score with doxorubicin: 2.81; viability z-score without drug: 0.84; outcome: inactive

With Lypd3 (Ly6/Plaur domain containing 3) [SID152325290], what was measured?
combined z-score class: low cell count with doxorubicin only; viability z-score with doxorubicin: -2.02; viability z-score without drug: -1.69; outcome: active

How did the screen score Calr (calreticulin) [SID152311215]?
combined z-score class: no change with or without drug; viability z-score with doxorubicin: 0.34; viability z-score without drug: 0.34; outcome: inactive

With Ca7 (carbonic anhydrase 7) [SID152290142], what was measured?
combined z-score class: no change with or without drug; viability z-score with doxorubicin: -1.57; viability z-score without drug: -0.17; outcome: inactive

For Adam24 (ADAM metallopeptidase domain 24) [SID152299700], what does the deposit list?
combined z-score class: no change with or without drug; viability z-score with doxorubicin: -0.67; viability z-score without drug: -0.51; outcome: inactive

5 entries from above in another layout.
{"Target gene": "Asb5 (ankyrin repeat and SOCs box-containing 5)", "PubChem SID": "SID152330703", "combined z-score class": "no change with or without drug", "viability z-score with doxorubicin": 0.56, "viability z-score without drug": -1.18, "outcome": "inactive"}
{"Target gene": "Coil (coilin)", "PubChem SID": "SID152261694", "combined z-score class": "no change with or without drug", "viability z-score with doxorubicin": 0.79, "viability z-score without drug": 1.01, "outcome": "inactive"}
{"Target gene": "Mak16 (MAK16 homolog)", "PubChem SID": "SID152280346", "combined z-score class": "no change with or without drug", "viability z-score with doxorubicin": 0.79, "viability z-score without drug": 1.85, "outcome": "inactive"}
{"Target gene": "Dnmt1 (DNA methyltransferase 1)", "PubChem SID": "SID152341432", "combined z-score class": "no change with or without drug", "viability z-score with doxorubicin": 0.22, "viability z-score without drug": 0.17, "outcome": "inactive"}
{"Target gene": "Ptcd1 (pentatricopeptide repeat domain 1)", "PubChem SID": "SID152310945", "combined z-score class": "no change with or without drug", "viability z-score with doxorubicin": 0.45, "viability z-score without drug": 0.84, "outcome": "inactive"}

Continued.
Which result is listed for Dusp12 (dual specificity phosphatase 12) [SID152320749]?
combined z-score class: no change with or without drug; viability z-score with doxorubicin: 0.56; viability z-score without drug: 0.84; outcome: inactive

What is on record for Pramel27 (PRAME like 27) [SID152334622]?
combined z-score class: no change with or without drug; viability z-score with doxorubicin: -1.91; viability z-score without drug: 1.18; outcome: inactive

For Prdx6 (peroxiredoxin 6) [SID152310742], what does the deposit list?
combined z-score class: no change with or without drug; viability z-score with doxorubicin: 0.67; viability z-score without drug: 0.34; outcome: inactive

With 2610528J11Rik (RIKEN cDNA 2610528J11 gene) [SID152326468], how do the results read?
combined z-score class: no change with or without drug; viability z-score with doxorubicin: 0.11; viability z-score without drug: -0.17; outcome: inactive

For Slc68a1 [SID152268724], how do the results read?
combined z-score class: high cell count without drug only; viability z-score with doxorubicin: -0.45; viability z-score without drug: 2.02; outcome: inactive

What did the screen give for Fam241a (family with sequence similarity 241, member A) [SID152287064]?
combined z-score class: no change with or without drug; viability z-score with doxorubicin: 0.45; viability z-score without drug: 0.67; outcome: inactive

For Or5d36 (olfactory receptor family 5 subfamily D member 36) [SID152299580], what was measured?
combined z-score class: no change with or without drug; viability z-score with doxorubicin: 0; viability z-score without drug: -0.17; outcome: inactive

What did the screen give for Or5k17 (olfactory receptor family 5 subfamily K member 17) [SID152267416]?
combined z-score class: no change with or without drug; viability z-score with doxorubicin: -1.12; viability z-score without drug: -0.84; outcome: inactive

With Sowaha (sosondowah ankyrin repeat domain family member A) [SID152280127], what does the deposit list?
combined z-score class: no change with or without drug; viability z-score with doxorubicin: -0.9; viability z-score without drug: -0.51; outcome: inactive

With Akap12 (A kinase anchor protein 12) [SID152301023], how do the results read?
combined z-score class: low cell count with doxorubicin only; viability z-score with doxorubicin: -2.7; viability z-score without drug: 0.51; outcome: active

Which result is listed for Sobp (sine oculis binding protein) [SID152284770]?
combined z-score class: no change with or without drug; viability z-score with doxorubicin: -0.79; viability z-score without drug: 0.17; outcome: inactive

What is on record for Rhox11 (reproductive homeobox 11) [SID152271944]?
combined z-score class: no change with or without drug; viability z-score with doxorubicin: 0.34; viability z-score without drug: -0.17; outcome: inactive

Which result is listed for Topbp1 (topoisomerase (DNA) II binding protein 1) [SID152337962]?
combined z-score class: low cell count with doxorubicin only; viability z-score with doxorubicin: -5.06; viability z-score without drug: -0.51; outcome: active

What did the screen give for Atosa (atos homolog A) [SID152326734]?
combined z-score class: no change with or without drug; viability z-score with doxorubicin: 0; viability z-score without drug: 0.17; outcome: inactive

How did the screen score Cnn1 (calponin 1) [SID152336744]?
combined z-score class: low cell count with doxorubicin only; viability z-score with doxorubicin: -3.04; viability z-score without drug: -0.67; outcome: active

For Ap1b1 (adaptor protein complex AP-1, beta 1 subunit) [SID152270339], what does the deposit list?
combined z-score class: no change with or without drug; viability z-score with doxorubicin: 0.67; viability z-score without drug: 0.17; outcome: inactive

With Gast (gastrin) [SID152337574], what was measured?
combined z-score class: no change with or without drug; viability z-score with doxorubicin: -0.22; viability z-score without drug: -0.34; outcome: inactive

Which result is listed for Meis1 (Meis homeobox 1) [SID152282133]?
combined z-score class: high cell count without drug only; viability z-score with doxorubicin: 1.24; viability z-score without drug: 2.36; outcome: inactive

For 4930486L24Rik (RIKEN cDNA 4930486L24 gene) [SID152319045], what was measured?
combined z-score class: no change with or without drug; viability z-score with doxorubicin: 0; viability z-score without drug: 0.84; outcome: inactive

With Myoz1 (myozenin 1) [SID152304939], what was measured?
combined z-score class: no change with or without drug; viability z-score with doxorubicin: 0.56; viability z-score without drug: 1.35; outcome: inactive

For Atp6ap1 (ATPase, H+ transporting, lysosomal accessory protein 1) [SID152278377], what does the deposit list?
combined z-score class: no change with or without drug; viability z-score with doxorubicin: 0.9; viability z-score without drug: -0.51; outcome: inactive

For Ankrd33b (ankyrin repeat domain 33B) [SID152326560], what does the deposit list?
combined z-score class: no change with or without drug; viability z-score with doxorubicin: 0.45; viability z-score without drug: 0.51; outcome: inactive

Which result is listed for Spsb1 (splA/ryanodine receptor domain and SOCS box containing 1) [SID152320350]?
combined z-score class: low cell count with doxorubicin only; viability z-score with doxorubicin: -3.15; viability z-score without drug: 1.85; outcome: active
